Results are given in words; binding and its absence hold for the method and conditions named. Binding seen in cells or lysates may run through a third protein. A yes stands for co-enrichment or nearness to the bait. Other partners may have been found.

Amino acid sequences for entries named in this document (tags omitted).
UniProt Q3URK3: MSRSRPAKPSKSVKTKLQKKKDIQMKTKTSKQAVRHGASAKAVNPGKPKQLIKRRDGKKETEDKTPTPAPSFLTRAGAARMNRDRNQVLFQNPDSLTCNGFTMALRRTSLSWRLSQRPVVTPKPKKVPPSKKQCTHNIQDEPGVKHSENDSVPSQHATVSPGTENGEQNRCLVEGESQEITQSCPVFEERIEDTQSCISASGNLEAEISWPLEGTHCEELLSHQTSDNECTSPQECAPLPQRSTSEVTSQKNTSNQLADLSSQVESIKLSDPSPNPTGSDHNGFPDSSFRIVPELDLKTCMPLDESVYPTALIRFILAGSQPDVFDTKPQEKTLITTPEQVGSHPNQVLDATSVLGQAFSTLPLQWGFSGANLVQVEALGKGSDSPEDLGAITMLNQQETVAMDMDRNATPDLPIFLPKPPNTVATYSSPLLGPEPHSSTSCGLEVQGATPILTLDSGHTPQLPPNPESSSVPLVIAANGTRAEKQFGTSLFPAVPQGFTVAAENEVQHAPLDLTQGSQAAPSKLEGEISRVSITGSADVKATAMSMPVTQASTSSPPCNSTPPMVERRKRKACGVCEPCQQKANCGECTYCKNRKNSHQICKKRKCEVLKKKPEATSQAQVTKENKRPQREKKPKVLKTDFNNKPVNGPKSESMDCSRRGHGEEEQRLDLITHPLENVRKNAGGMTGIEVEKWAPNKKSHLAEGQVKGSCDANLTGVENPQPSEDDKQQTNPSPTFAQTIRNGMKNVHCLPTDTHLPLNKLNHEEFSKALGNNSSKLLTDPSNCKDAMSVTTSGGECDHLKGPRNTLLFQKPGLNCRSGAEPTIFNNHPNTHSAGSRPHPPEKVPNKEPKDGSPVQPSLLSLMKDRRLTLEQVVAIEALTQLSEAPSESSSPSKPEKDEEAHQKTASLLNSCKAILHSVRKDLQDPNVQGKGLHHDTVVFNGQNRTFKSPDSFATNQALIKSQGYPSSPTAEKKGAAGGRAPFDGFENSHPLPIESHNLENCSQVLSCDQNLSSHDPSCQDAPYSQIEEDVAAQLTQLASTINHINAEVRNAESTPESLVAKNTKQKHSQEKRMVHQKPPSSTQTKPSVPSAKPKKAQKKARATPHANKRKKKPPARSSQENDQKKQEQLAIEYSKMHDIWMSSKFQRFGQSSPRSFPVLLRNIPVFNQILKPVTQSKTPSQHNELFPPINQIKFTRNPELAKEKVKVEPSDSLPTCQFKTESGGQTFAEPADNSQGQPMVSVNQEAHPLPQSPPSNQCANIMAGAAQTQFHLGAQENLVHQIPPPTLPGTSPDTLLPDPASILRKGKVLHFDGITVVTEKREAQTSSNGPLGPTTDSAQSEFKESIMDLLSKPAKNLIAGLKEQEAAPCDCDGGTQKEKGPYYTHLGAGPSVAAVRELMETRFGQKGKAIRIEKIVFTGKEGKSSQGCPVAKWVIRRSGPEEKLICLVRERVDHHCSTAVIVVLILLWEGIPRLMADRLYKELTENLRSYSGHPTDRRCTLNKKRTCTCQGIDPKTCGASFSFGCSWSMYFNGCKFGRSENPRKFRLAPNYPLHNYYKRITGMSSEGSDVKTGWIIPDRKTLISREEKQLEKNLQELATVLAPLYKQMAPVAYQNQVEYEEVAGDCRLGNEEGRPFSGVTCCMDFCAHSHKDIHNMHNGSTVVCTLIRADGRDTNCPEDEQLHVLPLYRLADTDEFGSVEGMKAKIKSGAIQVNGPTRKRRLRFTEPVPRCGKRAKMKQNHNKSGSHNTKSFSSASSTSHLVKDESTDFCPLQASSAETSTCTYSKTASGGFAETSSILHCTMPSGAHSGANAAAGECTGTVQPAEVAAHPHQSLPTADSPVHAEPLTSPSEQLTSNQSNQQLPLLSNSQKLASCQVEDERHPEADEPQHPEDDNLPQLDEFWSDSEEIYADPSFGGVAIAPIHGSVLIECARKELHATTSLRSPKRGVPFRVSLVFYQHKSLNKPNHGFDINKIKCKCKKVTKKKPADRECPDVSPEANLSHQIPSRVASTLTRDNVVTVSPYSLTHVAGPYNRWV

The target of this experiment is TET1 (ten-eleven translocation 1), endogenous in oligodendrocyte lineage cells (mouse (endogenous in primary mouse OPCs and OLs)) (UniProt Q3URK3). The experiment is described as follows: affinity purification with mass spectrometry; IP of endogenous TET1 (rabbit anti-TET1, Catch and Release kit) from RIPA lysate of mouse mature OLs; normal IgG as control; SDS-PAGE, in-gel trypsin digestion, LC-MS/MS; done twice.

B1: Nup160 (protein, UniProt Q9Z0W3 1-1402)
chain: MAAAGSLERSFVELSGAERERPRHFREFTVCDIGTASAAFGTVKYSESAGGFYYVESGKLFSITRNRFIHWKTSGDTLELVEESLDLNLLNNAVRLKFQNYNILPGGVHVSETQNHVIILILTNQTVHRLILPHPSRMYRSELVTESQMQSIFTDIGKVDFRDPCNSQLIPSVPGLSPGSTTSAAWLSSDGEALFALPSASGGIFVLKLPPYDVPGIASVVELKQSSVMQRLLTGWMPTAIRGDHGPSDRALSLAVHCVEHDAFIFALCQDHKLRMWSYKDQMCLMVADMLEYVPVNKDLRLTAGTGHKLRLAYSPSMGLYLGIYMHAPKRGQFCVFQLVSTENNRYSLDHISSLFTSQETLVDFALTSTDIWALWHDAENQTIVKYINFEHNVAGQWNPVFMQPLPEEEIVIRDDQDPREMYLRSLFTPGHFINAALCKALQIFCRGTERNLDLSWNELKKEITLAVENELQGSVTEYEFSQDEFRTLQQEFWCKFYACVLQYQEALSHPLALHLNPVTNMVCLLKKGYLSFLVPSSLVDHLYLLPDEHLLTEDETTISDDADVARDVLCLIKCLRMIGESVTMDMAVLMETSCYNLQSPEKAAEHILEDLITIDVENVMEDICSKLQEIRNPVHAIGLLIREMDYETEVEMEKGFDPAQPLNVRMNLSQLYGSSTAGYIVCRGVYKIASTRFLICRDLLILQQLLTRLGDAVILGAGQLFQAQQDLLHRTAPLLLSYYLIKWASQCLATDVPVDTLESNLQHLSVLELTDSGALMANKLVSSPQTIMELFFQEVARKQIISHLFSQPKAPLSQTGLNWPEMITAVTGYLLQLLWPSNPGCLFLECLMGNCQYVQLQDYIQLLHPWCQVNVGSCRFMLGRCYLVTGEVQKALECFCQAASEVGKEEFLDRLIRSEDGEIVSTPKLQYYDKVLRLLDVVGLPELVIQLATSAITEAGDDWKSQATLRTCIFKHHLDLGHNSQAYEALTQIPDSSRQLDCLRQLVVVLCERSQLQDLVEFPYVNLHNEVVGIIESRARAVDLMTHNYYELLYAFHIYRHNYRKAGTVMFEYGMRLGREVRTLRGLEKQGNCYLAAINCLRLIRPEYAWIVQPASGAVSDRPGASPKRNHDGECTAAPTNRQIEILELEDLEKEYSLARIRLTLARHDPSVIAIAGSSSAKEMSALLVQAGLFDTAISLCQTFTLPLTPVFEGLAFKCIKLQFGGEAAQGEAWSWLATNQLSSVITTKESSATDEAWRLLSTYLERYKVQNNLYHHCVINKLLSHGVPLPNWLINSYKKVDAAELLRLYLNYDLLEEAVDLVSEYVDAVLGKGHQYFGIEFPLSATAPMVWLPYSSIDQLLQALGENSANSHNIILSQKILDKLEDYQQKVDKATRDLLYRRDL
In the case of B1, the binding result is “binds”.

B2: Nup107 (protein, UniProt Q8BH74 1-926)
chain: MDRSGFGGMSSPVIRDAEVTRTARKHSAHKRVLIQANQEDNFGTATPRSQIIPRTPSSFRQPFVTPSSRSLLRHPDISYILGTEGRSPRHTQSSGYLGNLSMVTNLDDSNWAAAFSSQRLGLYTNTEHHSMTEDVNLSTVMLREDDPGEAASMSMFSDFLHSFLKHSSTTVFDLVEEYENICGSQVNILSKIVSRATPGLQKFSKTASMLWLLQQEMVTWRLLASLYRDRIQSSLEEENMFAIAGINASEKMVVETLFQRDSLVRQSQLVVDWLESIAKDEIGEFSDNIEFYAKSVYWENTLHSLKQRQLLSHMGSTRPLVTELDPDAPIRQKLPLDDLDREDEVRLLKYLFTLIRAGMTEEAQRLCKRCGQAWRAATLEGWKLYHDPNVNGGTELEPVEGNPYRRIWKISCWRMAEDELFNKYERAIYAALSGNLKQLLPVCDTWEDTVWAYFRVMVDSLVEQEIRTSVMTQDDSEELPREYMEANWTLEKVFEELQATDKKRVLEENQEHYHIVQKFLILGDVDGLMDEFSKWLSKSGSSLPGHLLRFMTHLILFLRTLGLQTKEEVSIEVLKTYIQLLISEKHTSLIAFYTCHLPQDLAVAQYALFLEGVTEFEQRHQCLELAKEADLDVATITKTVVENICKKDNGEFSHHDLAPSLDTGTTEEDRLKIDVIDWLVFDPAQRAEALRQGNAIMRKFLALKKHEAAKEVFVKIPQDSIAEIYNQWEEQGMESPLPAEDDNAIREHLCIRAYLEAHETFNEWFKHMNSAPQKPTLLSQATFTEKVAYEHREKKYEMDHNIWKGHLDALTADVKEKMYNVLLFVDGGWMVDVREDAEDDPERTHQMVLLRKLCLPMLCFLLHTILHSTGQYQECLQLADMVSSERHKLYLVFSKEELRKLLQKLRESSLMLLDQGLDPLGYEIQS
For the molecule B2, the binding result was “binds”.

These data come from PMC7493855.
